Percent effect of library compounds

Data taken from ChEMBL document CHEMBL3988442, “University of Dundee, Small-Polar-MMV Screening Library” (2021).

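Growth of Mycobacterium tuberculosis over 3 days (7H9 medium with glucose and tyloxapol); the read-out is not stated. Tested at 500 µM. Higher reads as more growth inhibition (inferred: compounds with an IC50 in retests scored well above the rest). Of about 18,000 compounds tested this way, about 1,400 (7.9%) reached 50% or more in at least one test.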

Values are the deposited “Percent Effect”, in %. How 0% and 100% were set is not recorded. Most values in the screen are low, and negative values occur. This is an unselected part of the compounds tested.

compound,Percent Effect
O=C(NCC1COCCO1)N(Cc1cccs1)C1CC1 (stereo unspecified),30.08%
CC(=O)Cn1cnc2sc(C)c(C)c2c1=O,10.48%
Cc1nccc(N)c1Br,3.96%
CO[C@@H]1CCOC[C@H]1NC(=O)c1cccc(N(C)C)c1,9.856%
O=C1CCN(Cc2cc(Br)cc3cccnc23)CCN1,65.19%
COc1cc(F)cc(NC(=O)N2CCCC2)c1,20.78%
COC(=O)N1CCc2n[nH]c(=O)cc2C1,-5.654%
CC(C)N(Cc1cccnc1)S(C)(=O)=O,0.2194%
OC1(c2ncc[nH]2)CCNCC1,2.667%
CCC(C)NC(=O)COC(=O)c1c(C)nsc1NC (stereo unspecified),1.34%
COC(=O)CCn1cc(C(N)=O)cn1,-1.811%
CCCC(=O)Nc1c(C)n[nH]c1C,8.442%
Cc1ccc(OCC(C)NC(=O)CSCC(N)=O)cc1 (stereo unspecified),27.1%
Cc1ncc(C(=O)NCC(C)CO)c(O)c1Br (stereo unspecified),12.12%
CNC(=O)CSCC(=O)NC(C)(C)C,2.625%
CCCNC(=O)CNC(=O)Cc1c[nH]c2ccccc12,17.22%
[H][C@]12CNC[C@]([H])(CN(S(=O)(=O)c3cccc(F)c3)C1)O2,3.644%
CC1c2ccsc2CCN1C(=O)c1ccn(C)c(=O)c1 (stereo unspecified),24.64%
O=C(Cc1ccccc1Cl)NC1CCCNC1 (stereo unspecified),13.69%
CN1C[C@@H]2CN(Cc3ccc(N(C)C)nc3)C[C@@H]2C1,2.25%
NS(=O)(=O)CCOCc1ccccc1,5.422%
CS(=O)(=O)NCCNCc1cc(Cl)ccc1F,9.856%
CCCC(N)CNS(=O)(=O)c1ccc(C(C)=O)cc1 (stereo unspecified),30.78%
CS(=O)(=O)NCC(CO)Cc1c(F)cccc1Cl (stereo unspecified),30.93%
CNC(=O)C(C)NS(=O)(=O)c1ccc(OC)c(Cl)c1 (stereo unspecified),1.941%
Cn1cnnc1SCCNC(=O)c1ccncc1F,4.17%
N#Cc1ccc(NC(=O)Cn2cc(I)cn2)cc1,5.304%
CNS(=O)(=O)c1ccc(C(=O)NCc2ccccc2)o1,58.17%
O=C(Nc1ccccn1)C1CCS(=O)(=O)C1 (stereo unspecified),0.1363%
COc1cccc(CC(=O)N2CCC(N)CC2)c1,23.75%
COCCN(CC(F)F)C(=O)NCc1ccco1,-12.52%
O=C(c1cccs1)N1CCCN(CCCO)CC1,14.7%
CN(CC1CC1)C(=O)c1cccnc1-n1cccn1,5.965%
O=C1NCCN1CCNc1cc(C2CC(O)C2)ncn1 (stereo unspecified),-3.266%
COC(=O)Cc1cccc(NC(=O)c2ccoc2C)n1,1.445%
CC(C)(C)OC(=O)CN(CC1CNCCO1)S(C)(=O)=O (stereo unspecified),2.228%
CS(=O)(=O)CCN1CCC(Oc2ccc(F)cc2)CC1,77.22%
COc1cc(C)cc(C(=O)NCc2ncc[nH]2)c1O,41.51%
CNC1CN(C(=O)OC(C)(C)C)C1,2.943%
CC(O)CN(C)Cc1cc(C#N)cs1 (stereo unspecified),2.627%
CC1(C)COC(=O)C1N (stereo unspecified),3.216%
Cc1ccnc(NC(=O)CC(C)n2nc(C)nc2C)c1 (stereo unspecified),3.914%
N#CC1(NC(=O)C(O)Cc2ccccc2Cl)CCC1 (stereo unspecified),23.66%
CCNc1ncc(C(=O)NCc2ccncc2)cn1,17.85%
CC(C)C(C(=O)N1CCNC(=O)C1)c1ccc(Cl)cc1 (stereo unspecified),19.24%
CCCC(C)NC(=O)c1coc(C)n1 (stereo unspecified),51.57%
CCOC(=O)COc1ccc(C(N)=O)cc1,-6.813%
CSc1cc(NC(=O)NCCn2ccnc2)ccn1,7.957%
O=C(CCN1CCCCCC1=O)NCc1ncc[nH]1,12.21%
CCC(N)(CC)CNS(=O)(=O)N1CCCCC1,-7.254%
COCc1noc(CN2CC[C@](C)(O)C(C)(C)C2)n1,-68.84%
CS(=O)(=O)CCSc1nccn1Cc1ccccn1,32.66%
Cc1ccc(C(=O)N2C[C@H](C3CC3)[C@@H](N)C2)s1,37.21%
Cc1nn(C)c(C)c1CCC(=O)N1C[C@H]2CC[C@@H](C1)N2,-2.228%
COCCn1ccnc1CN1CC[C@](C)(O)C(C)(C)C1,5.368%
NC1CCNC2(CCC2)C1 (stereo unspecified),-1.53%
CC(C)COCCN1CCN(Cc2ccon2)CC1,-2.896%
Cc1nc([C@H]2CCCN2)cs1,-5.915%
Cc1cnc(C(=O)NCc2ccc(C)n2C)cn1,44.34%
CC(C)(C)NC(=O)CNc1c(F)cc(C#N)cc1F,23.29%
CN(CCC#N)C(CCO)c1ccccc1 (stereo unspecified),-0.3813%
O=C(CN1CCOCC1)c1nccs1,-31.7%
O=C(CSc1nncs1)NCC1CCCO1 (stereo unspecified),-163%
COCCC1CN(C(=O)c2ccc(C)c(F)c2)CCO1 (stereo unspecified),59.06%
CCOC(=O)c1ccc(S(=O)(=O)N2CCNCC2)o1,4.745%
CCC(N)(CC)CCO,0.248%
Nc1nc(NCc2ccncc2)cc(-n2cccn2)n1,-8.093%
Cn1ncnc1CCNc1cc(C2CC(N)C2)ncn1 (stereo unspecified),-4.254%
CC(C)c1nc(NCc2cccnc2)n(C)n1,-11.56%
CC(C)CC(C)Oc1cc(CN)ccn1 (stereo unspecified),40.22%
Cn1ncc2c(N3CCCCC3CN)ncnc21 (stereo unspecified),4.632%
CCc1nccn1CCCNC(=O)[C@H]1CC[C@@H](N)C1,-18.98%
CCc1ccc(N(C(C)C(=O)NC)S(C)(=O)=O)cc1 (stereo unspecified),17.47%
NCCCNC(=O)c1ccc2ccccc2c1O,5.496%
CC(C(=O)NCc1cccs1)S(=O)(=O)C1CCCC1 (stereo unspecified),54.76%
Cn1cc2ccc(CN)cc2n1,15.18%
CC(C)NC(=O)c1ccc2[nH]nnc2c1,3.644%
CN1CCN(C(=O)CC(C)(C)C)CC1,-3.813%
CC(=O)NCCNC(=O)NC(C)Cc1ccccc1Br (stereo unspecified),24.14%
CCCc1ccc(CN2CCC(NC(C)=O)C2)o1 (stereo unspecified),13.85%
Cn1cncc1CCO,-5.637%
CC(C)NC(=O)NCCN1CCNCC1,11.25%
CC1NCCCNC1=O (stereo unspecified),-2.186%
CC(C)C(Nc1cnn(C)c(=O)c1Cl)C(N)=O (stereo unspecified),7.487%
Cc1noc(C)c1CNC1=NS(=O)(=O)c2ccccc21,-168%
Cc1cc(=O)cc(C(=O)NCCc2cn[nH]c2)o1,-5.236%